These results are taken from the supplement of paper PMC7666118.

The chains behind the UniProt entries cited, without tags or fusion partners. Where a name states a change or a piece, a line headed by the entry shows the natural chain unless it says otherwise.
UniProt P46063: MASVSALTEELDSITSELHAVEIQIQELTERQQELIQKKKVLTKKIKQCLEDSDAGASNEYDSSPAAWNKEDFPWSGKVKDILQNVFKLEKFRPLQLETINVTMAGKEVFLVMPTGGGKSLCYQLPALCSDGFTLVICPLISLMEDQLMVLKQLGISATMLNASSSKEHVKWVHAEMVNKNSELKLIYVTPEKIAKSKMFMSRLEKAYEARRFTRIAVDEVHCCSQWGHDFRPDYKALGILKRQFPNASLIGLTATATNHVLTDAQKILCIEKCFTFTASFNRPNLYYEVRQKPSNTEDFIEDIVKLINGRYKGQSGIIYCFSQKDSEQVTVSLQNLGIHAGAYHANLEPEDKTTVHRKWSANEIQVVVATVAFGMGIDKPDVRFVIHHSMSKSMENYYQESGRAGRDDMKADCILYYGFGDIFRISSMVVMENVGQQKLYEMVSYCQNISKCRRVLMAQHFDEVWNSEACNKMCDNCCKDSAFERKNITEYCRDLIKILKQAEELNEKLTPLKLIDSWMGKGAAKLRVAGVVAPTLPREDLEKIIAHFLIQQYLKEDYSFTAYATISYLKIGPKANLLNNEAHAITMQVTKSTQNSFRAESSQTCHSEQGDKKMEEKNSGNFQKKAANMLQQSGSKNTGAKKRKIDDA
UniProt Q6JBY9, whole entry: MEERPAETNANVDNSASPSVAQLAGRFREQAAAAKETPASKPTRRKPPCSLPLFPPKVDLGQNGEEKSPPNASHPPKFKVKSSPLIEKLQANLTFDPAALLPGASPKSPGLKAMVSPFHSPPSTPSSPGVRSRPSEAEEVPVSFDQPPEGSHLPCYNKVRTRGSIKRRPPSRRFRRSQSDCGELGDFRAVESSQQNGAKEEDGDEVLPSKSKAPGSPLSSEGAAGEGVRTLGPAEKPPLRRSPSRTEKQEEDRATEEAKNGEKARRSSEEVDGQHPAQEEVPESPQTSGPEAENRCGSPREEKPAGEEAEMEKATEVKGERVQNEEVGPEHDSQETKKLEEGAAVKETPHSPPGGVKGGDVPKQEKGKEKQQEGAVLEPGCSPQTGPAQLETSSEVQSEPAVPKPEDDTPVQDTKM
UniProt P05387, whole entry: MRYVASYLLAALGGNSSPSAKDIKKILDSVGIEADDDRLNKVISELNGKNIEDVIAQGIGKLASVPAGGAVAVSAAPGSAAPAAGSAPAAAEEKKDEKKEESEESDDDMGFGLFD
UniProt Q6R327, whole entry: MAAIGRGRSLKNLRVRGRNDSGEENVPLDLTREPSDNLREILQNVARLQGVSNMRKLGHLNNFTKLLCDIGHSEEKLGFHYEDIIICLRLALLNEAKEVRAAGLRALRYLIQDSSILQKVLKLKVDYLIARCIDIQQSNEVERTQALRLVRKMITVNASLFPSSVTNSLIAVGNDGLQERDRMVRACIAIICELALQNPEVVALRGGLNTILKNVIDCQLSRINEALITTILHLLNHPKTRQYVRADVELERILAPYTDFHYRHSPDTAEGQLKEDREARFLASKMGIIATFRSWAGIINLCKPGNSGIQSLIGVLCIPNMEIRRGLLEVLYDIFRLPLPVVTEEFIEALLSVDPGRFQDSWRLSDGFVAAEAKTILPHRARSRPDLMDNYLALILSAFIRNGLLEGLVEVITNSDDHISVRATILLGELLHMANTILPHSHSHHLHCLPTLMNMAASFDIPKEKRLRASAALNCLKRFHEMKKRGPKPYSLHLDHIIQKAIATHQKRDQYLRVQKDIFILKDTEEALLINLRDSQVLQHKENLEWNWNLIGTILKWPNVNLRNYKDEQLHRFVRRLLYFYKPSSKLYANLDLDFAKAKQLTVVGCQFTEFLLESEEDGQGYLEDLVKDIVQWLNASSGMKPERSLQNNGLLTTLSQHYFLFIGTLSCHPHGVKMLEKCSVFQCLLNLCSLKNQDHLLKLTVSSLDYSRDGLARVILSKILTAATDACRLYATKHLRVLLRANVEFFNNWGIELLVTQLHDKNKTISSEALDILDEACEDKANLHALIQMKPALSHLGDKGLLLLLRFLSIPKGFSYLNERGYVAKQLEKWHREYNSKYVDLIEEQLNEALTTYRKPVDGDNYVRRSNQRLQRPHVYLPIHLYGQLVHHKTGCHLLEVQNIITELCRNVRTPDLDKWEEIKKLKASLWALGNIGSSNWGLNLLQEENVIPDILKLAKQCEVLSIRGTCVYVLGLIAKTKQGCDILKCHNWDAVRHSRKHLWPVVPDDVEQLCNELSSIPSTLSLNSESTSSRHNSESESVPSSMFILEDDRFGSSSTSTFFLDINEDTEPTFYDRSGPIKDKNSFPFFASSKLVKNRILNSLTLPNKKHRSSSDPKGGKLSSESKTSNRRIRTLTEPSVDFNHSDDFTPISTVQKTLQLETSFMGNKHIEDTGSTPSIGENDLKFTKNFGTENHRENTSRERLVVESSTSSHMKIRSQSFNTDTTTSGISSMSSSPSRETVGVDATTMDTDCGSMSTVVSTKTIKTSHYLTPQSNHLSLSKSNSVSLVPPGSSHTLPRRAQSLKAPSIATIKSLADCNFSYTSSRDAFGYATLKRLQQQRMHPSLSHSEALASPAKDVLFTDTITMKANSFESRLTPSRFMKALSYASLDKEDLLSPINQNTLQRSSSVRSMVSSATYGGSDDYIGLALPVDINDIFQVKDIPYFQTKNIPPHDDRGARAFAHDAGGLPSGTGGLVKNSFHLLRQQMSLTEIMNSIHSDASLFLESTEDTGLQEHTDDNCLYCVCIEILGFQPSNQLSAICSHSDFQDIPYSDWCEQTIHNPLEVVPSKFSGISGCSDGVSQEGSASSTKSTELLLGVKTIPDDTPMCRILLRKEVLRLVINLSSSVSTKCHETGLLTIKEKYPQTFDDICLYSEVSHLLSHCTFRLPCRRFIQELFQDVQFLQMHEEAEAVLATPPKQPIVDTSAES
UniProt Q9UHR5: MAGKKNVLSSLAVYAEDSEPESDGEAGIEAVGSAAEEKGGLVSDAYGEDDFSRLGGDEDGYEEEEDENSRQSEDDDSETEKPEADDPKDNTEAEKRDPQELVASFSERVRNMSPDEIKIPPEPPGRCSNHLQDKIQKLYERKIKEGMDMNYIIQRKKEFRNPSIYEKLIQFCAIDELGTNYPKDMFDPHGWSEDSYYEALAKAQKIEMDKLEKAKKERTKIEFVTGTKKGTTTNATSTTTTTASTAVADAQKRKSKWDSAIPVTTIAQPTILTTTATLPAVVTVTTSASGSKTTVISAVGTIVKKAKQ
UniProt P05386, whole entry: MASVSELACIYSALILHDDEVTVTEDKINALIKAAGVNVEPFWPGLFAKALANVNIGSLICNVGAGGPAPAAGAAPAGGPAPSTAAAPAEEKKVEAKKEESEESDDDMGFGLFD
UniProt Q15293: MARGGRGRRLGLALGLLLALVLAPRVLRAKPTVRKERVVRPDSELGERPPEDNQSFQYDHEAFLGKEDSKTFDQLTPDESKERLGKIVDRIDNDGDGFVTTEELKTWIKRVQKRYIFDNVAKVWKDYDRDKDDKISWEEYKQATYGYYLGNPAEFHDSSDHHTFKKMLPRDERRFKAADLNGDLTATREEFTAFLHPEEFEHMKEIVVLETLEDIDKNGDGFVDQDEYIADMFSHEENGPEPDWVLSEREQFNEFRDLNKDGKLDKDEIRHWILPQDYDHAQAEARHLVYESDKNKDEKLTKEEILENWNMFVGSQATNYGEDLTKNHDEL
UniProt Q15404: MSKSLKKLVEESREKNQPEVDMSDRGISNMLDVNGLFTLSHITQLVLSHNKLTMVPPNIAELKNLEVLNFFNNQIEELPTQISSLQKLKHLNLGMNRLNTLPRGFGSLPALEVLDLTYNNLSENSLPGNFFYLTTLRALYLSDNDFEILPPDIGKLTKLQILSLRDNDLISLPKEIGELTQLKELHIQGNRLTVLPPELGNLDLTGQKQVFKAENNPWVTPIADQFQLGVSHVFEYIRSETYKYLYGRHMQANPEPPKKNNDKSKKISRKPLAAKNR
UniProt Q9BRS2: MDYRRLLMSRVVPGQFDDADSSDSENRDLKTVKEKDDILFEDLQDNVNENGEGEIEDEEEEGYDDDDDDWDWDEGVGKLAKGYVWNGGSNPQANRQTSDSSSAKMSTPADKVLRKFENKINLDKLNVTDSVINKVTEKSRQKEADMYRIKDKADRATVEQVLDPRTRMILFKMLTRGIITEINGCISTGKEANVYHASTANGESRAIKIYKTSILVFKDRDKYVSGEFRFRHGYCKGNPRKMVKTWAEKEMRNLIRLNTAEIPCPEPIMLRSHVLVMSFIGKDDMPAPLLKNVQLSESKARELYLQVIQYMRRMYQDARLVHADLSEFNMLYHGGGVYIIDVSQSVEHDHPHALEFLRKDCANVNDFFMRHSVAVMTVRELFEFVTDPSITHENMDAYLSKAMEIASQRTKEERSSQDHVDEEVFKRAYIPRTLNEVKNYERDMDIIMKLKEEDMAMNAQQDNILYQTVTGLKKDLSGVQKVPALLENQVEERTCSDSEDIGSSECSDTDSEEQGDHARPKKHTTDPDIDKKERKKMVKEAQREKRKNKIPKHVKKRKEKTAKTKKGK
UniProt O00237: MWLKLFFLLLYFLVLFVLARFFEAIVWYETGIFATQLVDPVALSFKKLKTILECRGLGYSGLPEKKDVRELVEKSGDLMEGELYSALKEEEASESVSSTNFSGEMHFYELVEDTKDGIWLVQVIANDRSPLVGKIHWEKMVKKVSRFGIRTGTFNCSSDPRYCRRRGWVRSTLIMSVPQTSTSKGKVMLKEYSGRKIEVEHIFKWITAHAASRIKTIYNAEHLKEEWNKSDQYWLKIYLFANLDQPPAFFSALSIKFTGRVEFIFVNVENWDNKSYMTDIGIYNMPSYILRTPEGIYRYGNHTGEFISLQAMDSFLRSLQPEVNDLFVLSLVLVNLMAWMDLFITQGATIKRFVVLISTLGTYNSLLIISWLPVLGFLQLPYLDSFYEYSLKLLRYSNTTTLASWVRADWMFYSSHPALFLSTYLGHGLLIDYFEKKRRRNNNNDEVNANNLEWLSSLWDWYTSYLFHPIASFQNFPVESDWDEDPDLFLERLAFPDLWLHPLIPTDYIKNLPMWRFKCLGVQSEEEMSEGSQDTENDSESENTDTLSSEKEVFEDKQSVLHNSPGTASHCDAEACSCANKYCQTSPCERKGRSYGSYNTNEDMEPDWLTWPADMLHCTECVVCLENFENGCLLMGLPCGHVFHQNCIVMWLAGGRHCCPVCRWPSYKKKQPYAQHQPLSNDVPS
UniProt P48378: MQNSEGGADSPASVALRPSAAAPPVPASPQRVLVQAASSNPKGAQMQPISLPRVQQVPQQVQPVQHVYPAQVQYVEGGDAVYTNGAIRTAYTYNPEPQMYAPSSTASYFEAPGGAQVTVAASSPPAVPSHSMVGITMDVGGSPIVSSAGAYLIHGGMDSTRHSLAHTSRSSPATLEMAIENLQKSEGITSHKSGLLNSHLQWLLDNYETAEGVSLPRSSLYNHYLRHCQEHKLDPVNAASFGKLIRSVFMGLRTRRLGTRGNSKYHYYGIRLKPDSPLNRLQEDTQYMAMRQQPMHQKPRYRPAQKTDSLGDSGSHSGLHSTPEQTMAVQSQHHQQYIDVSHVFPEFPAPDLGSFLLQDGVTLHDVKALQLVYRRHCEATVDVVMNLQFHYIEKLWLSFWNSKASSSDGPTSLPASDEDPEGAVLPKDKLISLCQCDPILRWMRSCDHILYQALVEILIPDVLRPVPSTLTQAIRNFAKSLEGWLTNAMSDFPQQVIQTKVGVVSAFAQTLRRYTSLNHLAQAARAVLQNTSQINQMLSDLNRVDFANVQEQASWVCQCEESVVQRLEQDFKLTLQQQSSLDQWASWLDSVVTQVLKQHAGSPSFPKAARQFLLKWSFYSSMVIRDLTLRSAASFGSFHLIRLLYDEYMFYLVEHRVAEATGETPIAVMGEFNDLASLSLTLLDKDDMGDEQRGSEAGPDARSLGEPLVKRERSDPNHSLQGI
UniProt O75695: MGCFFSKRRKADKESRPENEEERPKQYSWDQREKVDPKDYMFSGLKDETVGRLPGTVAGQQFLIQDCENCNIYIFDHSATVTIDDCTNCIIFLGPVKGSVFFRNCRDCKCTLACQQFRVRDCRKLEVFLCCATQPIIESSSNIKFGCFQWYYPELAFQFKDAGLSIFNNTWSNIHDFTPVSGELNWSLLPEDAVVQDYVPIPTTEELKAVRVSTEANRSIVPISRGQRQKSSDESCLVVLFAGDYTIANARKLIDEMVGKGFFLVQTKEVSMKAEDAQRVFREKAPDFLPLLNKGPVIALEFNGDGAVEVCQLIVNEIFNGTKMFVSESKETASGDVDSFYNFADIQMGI

The list shows a part of the results.

Compound in this assay: COc1ccc(Cn2ccc3ccc(C(=O)NO)cc32)cc1
As to the kind of experiment: dose-dependent thermal stabilisation call (2D-TPP, DLPTP, 10% FDR) (binary (1 = stabilised)); higher = stabilised by the compound. Particulars: system: HL-60 intact cells; concentration range 0.04-10 µM.
RECQL (UniProt P46063): the “dose-dependent thermal stabilisation call” value is inactive: 0. Take RNF34 (UniProt Q969K3): the “dose-dependent thermal stabilisation call” value was inactive: 0.

Take RCSD1 (UniProt Q6JBY9): the “dose-dependent thermal stabilisation call” value was inactive: 0. In the case of RPLP2 (UniProt P05387) it was inactive: 0; in that of RICTOR (UniProt Q6R327), inactive: 0; in that of RPS24 (UniProt P62847), inactive: 0.

For the target RPL37 (UniProt P61927), the “dose-dependent thermal stabilisation call” value was active: 1. In the case of SAP30BP (UniProt Q9UHR5) it was inactive: 0; in that of RPLP1 (UniProt P05386), inactive: 0; in that of RCN1 (UniProt Q15293), inactive: 0. In the case of RSL1D1 (UniProt O76021), the “dose-dependent thermal stabilisation call” value is inactive: 0. In the case of RHEB (UniProt Q15382) it was inactive: 0; in that of RSU1 (UniProt Q15404), inactive: 0. Turning to SAMM50 (UniProt Q9Y512), the “dose-dependent thermal stabilisation call” value is inactive: 0. As for RIOK1 (UniProt Q9BRS2), the “dose-dependent thermal stabilisation call” value is inactive: 0. Under RNASEN (UniProt Q9NRR4) stands inactive: 0; under RNF103 (UniProt O00237), inactive: 0.

Turning to RPL28 (UniProt P46779), the “dose-dependent thermal stabilisation call” value was inactive: 0. In the case of RPL6 (UniProt Q02878), the “dose-dependent thermal stabilisation call” value was inactive: 0. In the case of RCBTB1 (UniProt Q8NDN9), the “dose-dependent thermal stabilisation call” value was inactive: 0. Under RTN4 (UniProt Q9NQC3) stands inactive: 0; under RFX2 (UniProt P48378), inactive: 0. Under RPL19 (UniProt P84098) stands inactive: 0; under RPS6 (UniProt P62753), inactive: 0; under RP2 (UniProt O75695), inactive: 0. Under RPL14 (UniProt P50914) stands inactive: 0; under RPL36 (UniProt Q9Y3U8), inactive: 0.
